Values from PubChem BioAssay AID1259424 (University of Nebraska Medical Center, 2018).

Screen: 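Seek colon cancer survival genes behaving like KSR1, using a six-gene signature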 (primary screen)
System: human HCT116 colon cancer cells
Knock-down reagent: siRNA pool against human genes, 50 nM
Measurement: 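Six signature mRNAs by branched-DNA multiplex assay, scaled to two housekeeping genes and non-targeting median, log2; matched to mean KSR1 knockdown profile by Pearson correlation and euclidean distance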
Scale: mean correlation with KSR1 profile: higher = expression change more like KSR1 knockdown
Here is a random part of about 14,000 reagents tested. 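Higher correlation or smaller distance means closer resemblance to KSR1 loss; control wells, including KSR1 knockdowns, recur on many plates.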 Further read-outs or replicates are left out here. Not given: the time to read-out.

MYCBP2 → mean correlation with KSR1 profile = -0.159
BIRC8 → mean correlation with KSR1 profile = -0.224
SLC20A2 → mean correlation with KSR1 profile = 0.521
UNC5C → mean correlation with KSR1 profile = -0.138
PCSK2 → mean correlation with KSR1 profile = 0.423
PPM1L → mean correlation with KSR1 profile = -0.757
ZNF214 → mean correlation with KSR1 profile = 0.366
ADAMDEC1 → mean correlation with KSR1 profile = -0.259
ARHGAP11A → mean correlation with KSR1 profile = 0.769
NAAA → mean correlation with KSR1 profile = -0.0584
USP13 → mean correlation with KSR1 profile = -0.378
ACOT13 → mean correlation with KSR1 profile = 0.162
CGREF1 → mean correlation with KSR1 profile = 0.254
ALDH6A1 → mean correlation with KSR1 profile = -0.268
TULP2 → mean correlation with KSR1 profile = 0.139
MADCAM1 → mean correlation with KSR1 profile = 0.312
PPP2R3C → mean correlation with KSR1 profile = 0.505
MEP1A → mean correlation with KSR1 profile = -0.369
SYT1 → mean correlation with KSR1 profile = -0.566
TCF25 → mean correlation with KSR1 profile = 0.549
CCIN → mean correlation with KSR1 profile = -0.0316
SNX17 → mean correlation with KSR1 profile = 0.351
TREM1 → mean correlation with KSR1 profile = -0.177
POU3F3 → mean correlation with KSR1 profile = 0.15
MRPL50 → mean correlation with KSR1 profile = -0.417
CYP1B1 → mean correlation with KSR1 profile = 0.642
RBMY1A1 → mean correlation with KSR1 profile = 0.201
MCF2L2 → mean correlation with KSR1 profile = -0.43
